# Source: PubChem BioAssay AID743121 (NCATS, 2013)
# Assay: 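Genes whose silencing strengthens cell killing by camptothecin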 (primary screen)
# System: MDA-MB-231 cells, a human breast cancer line
# Reagent: single siRNA against human genes, 20 nM siRNA (0.8 pmol per well)
# Duration: 120 h (drug added 48 h after transfection, read 72 h later)
# Challenge: camptothecin 20 nM (about EC30) for 72 h; vehicle 0.1% DMSO in parallel plates
# Measured: 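CellTiter-Glo ATP signal, scaled to control siRNA as percent viability; sensitisation given as log2 of untreated divided by camptothecin-treated viability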
# Scale: log2 vehicle/camptothecin viability: higher = stronger sensitisation to camptothecin; viability with camptothecin and viability without drug: higher = more viable cells
# Call rule: 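Each gene scored by redundant siRNA activity (RSA) over its individual siRNA ratios; a gene is called active at p < 0.001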
# The deposit covers about 26,000 reagents; this is a random part of them. 167 of them (0.63%) count as active. 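Calls are per gene from RSA p-values that are not deposited; an individual active-marked siRNA can sensitise only weakly.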 The numbers tell different reagents against one gene apart.
Gene,siRNA no.,log2 vehicle/camptothecin viability,viability with camptothecin (% of control),viability without drug (% of control),Outcome
ERAP2,1,0.742,31.9,53.4,inactive
ERAP2,2,-0.403,86.8,65.6,inactive
ERAP2,3,-0.0478,91.2,88.2,inactive
ERAP2,4,-0.461,78.2,56.8,inactive
OPN1MW,1,0.416,58.6,78.1,inactive
OPN1MW,2,-0.518,103,71.9,inactive
OPN1MW,3,-0.225,43.7,37.4,inactive
OPN1MW,4,-0.395,83,63.2,inactive
OPN1MW,5,-0.221,72.3,62,inactive
OPN1MW,6,0.13,40.6,44.4,inactive
DUSP23,1,-0.541,77.5,53.3,inactive
DUSP23,2,-0.339,91.6,72.4,inactive
DUSP23,3,-0.0268,113,111,inactive
DUSP23,4,-0.594,45.5,30.2,inactive
DEFA1,1,-0.109,78.3,72.6,inactive
DEFA1,2,0.423,56.7,76,inactive
DEFA1,3,-0.254,97.4,81.6,inactive
DEFA1,4,0.0234,97.8,99.4,inactive
CDH2,1,0.19,52.1,59.4,inactive
CDH2,2,-0.324,111,88.8,inactive
CDH2,3,-0.486,77.4,55.2,inactive
HTR3C,1,0.00125,62.6,62.7,inactive
HTR3C,2,-0.0472,85.8,83,inactive
HTR3C,3,-0.0965,105,98.5,inactive
GCGR,1,-0.389,61.5,47,inactive
GCGR,2,-0.334,71.8,56.9,inactive
GCGR,3,-0.209,93.9,81.3,inactive
GCGR,4,-0.436,105,77.4,inactive
PTCH1,1,0.258,82.2,98.3,inactive
PTCH1,2,-0.0357,89,86.8,inactive
PTCH1,3,-0.147,38.1,34.5,inactive
PTCH1,4,-0.203,52.9,46,inactive
SLC18A3,1,0.311,39.6,49.1,inactive
SLC18A3,2,-0.204,55.7,48.4,inactive
SLC18A3,3,-0.151,55.8,50.2,inactive
SLC18A3,4,0.0188,83.3,84.4,inactive
GRIP1,1,-0.0772,29.1,27.6,inactive
GRIP1,2,-0.577,87.4,58.6,inactive
GRIP1,3,-0.162,93.9,83.9,inactive
DSTYK,1,-0.0322,101,98.4,inactive
DSTYK,2,0.0514,72.4,75,inactive
DSTYK,3,0.209,95.1,110,inactive
DSTYK,4,0.0268,77.4,78.9,inactive
TM2D3,1,-0.305,71.9,58.2,inactive
TM2D3,2,-0.141,104,94.3,inactive
TM2D3,3,-0.459,86.7,63.1,inactive
TM2D3,4,-0.107,78.6,73,inactive
PPP1CA,1,-0.117,133,122,inactive
PPP1CA,2,0.365,52.8,68,inactive
PPP1CA,3,0.0305,74.2,75.7,inactive
PPP1CA,4,-0.167,59.3,52.8,inactive
CYP51A1,1,-0.371,89.8,69.4,inactive
CYP51A1,2,1.16,21.1,47.2,inactive
CYP51A1,3,0.158,88.6,98.8,inactive
CYP51A1,4,-0.054,101,96.8,inactive
SALL2,1,-0.00322,45.4,45.3,inactive
SALL2,2,0.0822,65,68.9,inactive
SALL2,3,-0.188,91.4,80.3,inactive
SALL2,4,-0.318,91,73,inactive
YAF2,1,-0.272,68,56.3,inactive
YAF2,2,-0.302,102,83.1,inactive
YAF2,3,0.0138,87.1,87.9,inactive
DZIP3,1,-0.265,101,84,inactive
DZIP3,2,0.0769,109,115,inactive
DZIP3,3,0.224,84.3,98.5,inactive
IL1A,1,-0.389,32,24.4,inactive
IL1A,2,-0.502,130,92,inactive
IL1A,3,-0.0882,49.1,46.2,inactive
ITGB2,1,-0.151,70.5,63.5,inactive
ITGB2,2,-0.189,72.8,63.9,inactive
ITGB2,3,-0.0456,97.7,94.7,inactive
ITGB2,4,-0.877,36.9,20.1,inactive
MECOM,1,0.369,53.9,69.5,inactive
MECOM,2,0.176,73.5,83,inactive
MECOM,3,-0.234,88,74.8,inactive
MECOM,4,-0.458,91.1,66.3,inactive
BMX,1,-0.568,89.6,60.4,inactive
BMX,2,-0.412,72.8,54.7,inactive
BMX,3,0.445,74.9,102,inactive
BMX,4,-0.168,76.3,67.9,inactive
HAT1,1,-0.482,72.8,52.1,inactive
HAT1,2,0.218,65.1,75.8,inactive
HAT1,3,-0.0569,56.1,53.9,inactive
HAT1,4,-0.407,75.3,56.8,inactive
SLC24A2,1,-0.00374,89,88.8,inactive
SLC24A2,2,0.114,85.7,92.7,inactive
SLC24A2,3,0.0997,39.3,42.1,inactive
SLC24A2,4,-0.554,81.5,55.5,inactive

8 entries already listed, sorted by “viability without drug (% of control)”, ascending.
Gene,siRNA no.,log2 vehicle/camptothecin viability,viability with camptothecin (% of control),viability without drug (% of control),Outcome
DUSP23,4,-0.594,45.5,30.2,inactive
OPN1MW,6,0.13,40.6,44.4,inactive
DUSP23,1,-0.541,77.5,53.3,inactive
OPN1MW,5,-0.221,72.3,62,inactive
DUSP23,2,-0.339,91.6,72.4,inactive
DEFA1,1,-0.109,78.3,72.6,inactive
DEFA1,2,0.423,56.7,76,inactive
DUSP23,3,-0.0268,113,111,inactive
